Results are given in words; binding and its absence hold for the method and conditions named. Some entries that bind do so weakly or less than the wild type.
Molecular target: short-range (SR) synaptic complex (Ku70/80, XLF, and XRCC4-LigIV) assembled on DNA (UniProt P12956)
Experiment: pull-down

Amino acid sequences for entries named in this document (tags omitted). A change or cut given only in a name is not applied to a line headed by its entry.
UniProt P12956: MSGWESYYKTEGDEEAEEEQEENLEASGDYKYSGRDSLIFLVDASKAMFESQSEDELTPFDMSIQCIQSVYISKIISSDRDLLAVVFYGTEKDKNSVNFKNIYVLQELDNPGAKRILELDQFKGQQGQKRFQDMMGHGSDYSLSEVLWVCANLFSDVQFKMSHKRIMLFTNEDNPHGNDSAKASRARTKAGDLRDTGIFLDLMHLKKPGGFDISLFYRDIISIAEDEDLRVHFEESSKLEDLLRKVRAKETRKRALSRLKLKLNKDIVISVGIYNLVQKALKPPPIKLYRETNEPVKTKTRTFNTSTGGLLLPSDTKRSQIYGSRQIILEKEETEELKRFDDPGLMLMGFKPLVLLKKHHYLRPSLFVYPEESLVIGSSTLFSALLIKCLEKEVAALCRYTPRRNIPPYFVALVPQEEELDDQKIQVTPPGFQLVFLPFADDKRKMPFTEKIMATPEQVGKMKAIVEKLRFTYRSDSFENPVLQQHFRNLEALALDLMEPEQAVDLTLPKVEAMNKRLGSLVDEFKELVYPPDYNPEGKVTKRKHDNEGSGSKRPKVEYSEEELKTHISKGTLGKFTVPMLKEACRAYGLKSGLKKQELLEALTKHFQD

binding: binds
Substance: Polynucleotide kinase-phosphatase (PNKP) (from UniProt Q96T60 1-521) (enzyme)
